Assay results: article PMC7254050

Target: T1, Hyaluronidase (HYAL)-2 (human (endogenous in human lung fibroblasts AG02262)) (UniProt Q12891)
T1 sequence: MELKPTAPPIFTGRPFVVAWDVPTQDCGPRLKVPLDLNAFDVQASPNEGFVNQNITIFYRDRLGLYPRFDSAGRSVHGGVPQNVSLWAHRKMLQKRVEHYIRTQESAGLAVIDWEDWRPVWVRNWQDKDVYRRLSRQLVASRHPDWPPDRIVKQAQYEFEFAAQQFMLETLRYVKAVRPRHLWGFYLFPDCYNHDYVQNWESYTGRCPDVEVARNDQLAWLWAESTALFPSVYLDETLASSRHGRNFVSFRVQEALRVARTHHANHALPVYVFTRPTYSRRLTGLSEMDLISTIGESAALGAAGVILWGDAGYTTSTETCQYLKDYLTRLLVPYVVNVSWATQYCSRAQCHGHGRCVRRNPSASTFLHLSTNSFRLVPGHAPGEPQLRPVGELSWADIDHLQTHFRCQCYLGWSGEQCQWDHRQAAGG
Test: co-IP; 25 μg protein of RIPA lysate of human lung fibroblasts (serum-free medium alone or 10 ng/mL TGF-β1, 72 hours) precipitated with anti-HYAL2 antibody-linked anti-rabbit Dynabeads, overnight at 4°C, three washes with Nonidet P-40 buffer; Western blot of the precipitate; rabbit IgG as negative control

- binding: no binding
Substance: calcium/calmodulin-dependent protein kinase type II (CaMKII) (enzyme)

Results are given in words; binding and its absence hold for the method and conditions named. In cells and extracts the contact can be indirect.
